# Results reported in the supplement of paper PMC12889115.
# The list shows a part of the results. These are raw signals, not scaled to a control.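 First-pass screen: polymyxin B was added at a level that permeabilizes the Salmonella outer membrane while sparing the inner membrane. DMSO wells, with and without polymyxin B, defined maximum growth. Because plates differed from one another, each plate's data were ranked separately and the compounds with the lowest OD600 were carried forward as hits.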
# Tested on: Salmonella enterica serovar Typhimurium SL1344
# Test: bacterial growth OD600 after 18 h with compound and polymyxin B; higher = more bacterial growth (less inhibition)
# Details: 50 µM, Mueller-Hinton broth
Compound,bacterial growth OD600 (polymyxin B 0.75 µg/mL),bacterial growth OD600 (polymyxin B 1 µg/mL)
COc1cccc(CN2CCN(Cc3ccc(C#CC(C)(C)O)s3)CC2CCO)c1 (stereo not given),0.793,
COc1cccc(CCC2CCCN(C(=O)c3cc(C)[nH]n3)C2)c1 (stereo not given),0.765,
O=C(NC1CC(=O)N(CCc2cccc(Cl)c2)C1)C1CCOCC1 (stereo not given),,0.77
COCc1nc2cc(NC(=O)Cc3ccccc3)cc(C(=O)N(C)CCn3nc(C)cc3C)c2n1C,0.892,
COc1cccc(OCc2nc(C(=O)N(C)Cc3ccc(F)cc3)co2)c1,,0.715
CCOC(=O)C1(Cc2ccc(Cl)cc2)CCN(C(=O)CCCC(=O)OC)CC1,,0.741
Fc1cccc(-c2n[nH]c3c2CN(Cc2cccc4c2OCO4)CC3)c1,0.558,
COc1ccc(CCc2nc3cccnc3n2C2CCN(C(=O)C3CCCCCN3C)CC2)cc1 (stereo not given),0.915,
O=C(CCN1Cc2ccccc2OC(c2ccccc2)C1)NCCn1cccn1 (stereo not given),0.925,
CCOC(=O)C1(Cc2cccc(OC)c2)CCN(Cc2c[nH]c3ccccc23)CC1,,0.593
Cc1nc2ccc(C(=O)N3CCCC(CNC(=O)c4ccc(F)cc4)C3)cc2nc1C (stereo not given),,0.953
O=C(NCCC1COc2ccccc2O1)c1ccc(N2CCC(O)CC2)nc1 (stereo not given),0.812,
Cc1nc(N2CCC(C(=O)NCc3cnn(C)c3)CC2)nc2ccc(C(C)C)cc12,0.859,
COc1ccc(CN(C)C(=O)CC2(c3ccccc3F)CC(=O)N(C3CCCCC3)C2=O)cc1OC (stereo not given),0.037,
O=C(NCCc1cscn1)c1ccc(OC2CCN(Cc3ccccn3)CC2)cc1,,1.21
CC(C)(C)CN1CCC(C(=O)Nc2ccc(Oc3cccnc3)cc2)CC1,,0.305
CC(C)n1cc(C(=O)NCC2CCCCC2)c(=O)c(C(=O)N2CCN(C(=O)c3cccs3)CC2)c1,0.812,
CCS(=O)(=O)NCc1c(C)ncc2c1CCN(C(=O)C1(c3ccc(OC)cc3)CCCC1)C2,0.979,
CCN1CCN(C2(C(=O)N(C)CCOC)Cc3ccccc3C2)CC1,0.773,
Cn1cc(CNCCN2CCC(O)CC2)c(-c2ccc(Oc3ccccc3)cc2)n1,,0.83
CN(CCOc1ccccc1)C(=O)C1(N(C)C)Cc2ccccc2C1,,1.06
CCC1(C2CCN(C(=O)Cc3cccc(C)c3)CC2)NC(=O)N(Cc2ccc3c(c2)OCO3)C1=O (stereo not given),0.835,
CC(C)Cc1ccc(CN2CCCC(NC(=O)C3CCOCC3)C2)cc1 (stereo not given),,0.707
CCCn1c(C)c(CC(=O)NCC2CCCOC2)c2c1CC(C)(C)CC2=O (stereo not given),,0.701
CCN(CC)C(=O)C1CCCN(C(=O)c2cn(Cc3ccc(Cl)cc3)nn2)C1 (stereo not given),,0.975
Cn1cc(CN2CCCC(CNC(=O)c3cccnc3)C2)c(-c2ccccc2)n1 (stereo not given),0.856,
CCN(CC1CCN(CCc2ccccc2C)CC1)C(=O)c1occc1C,,1.13
COc1ccccc1C(=O)N1CCN(C(=O)C2CC(Cc3ccc(F)cc3)=NO2)CC1 (stereo not given),0.909,
CCS(=O)(=O)Nc1cc(C(=O)NCCN2CCOCC2)c2c(c1)nc(-c1ccccc1)n2C,0.811,
CCOC(=O)C1(Cc2ccccc2Cl)CCN(Cc2ccccn2)CC1,,0.763

# Structures listed so far that have a thiophene ring, fused or not (2):
Compound,bacterial growth OD600 (polymyxin B 0.75 µg/mL),bacterial growth OD600 (polymyxin B 1 µg/mL)
COc1cccc(CN2CCN(Cc3ccc(C#CC(C)(C)O)s3)CC2CCO)c1 (stereo not given),0.793,
CC(C)n1cc(C(=O)NCC2CCCCC2)c(=O)c(C(=O)N2CCN(C(=O)c3cccs3)CC2)c1,0.812,
